Publication PMC1559714
No constants are given. Whether binding was seen depends on the method and setting. In cells and extracts the contact can be indirect. Some results given as binding are weak or reduced against the parent protein; the word gives no strength.

By UniProt entry, the sequences of proteins in these tests, tags left out. Residues count along the entry.
UniProt P02769, residues 25-607: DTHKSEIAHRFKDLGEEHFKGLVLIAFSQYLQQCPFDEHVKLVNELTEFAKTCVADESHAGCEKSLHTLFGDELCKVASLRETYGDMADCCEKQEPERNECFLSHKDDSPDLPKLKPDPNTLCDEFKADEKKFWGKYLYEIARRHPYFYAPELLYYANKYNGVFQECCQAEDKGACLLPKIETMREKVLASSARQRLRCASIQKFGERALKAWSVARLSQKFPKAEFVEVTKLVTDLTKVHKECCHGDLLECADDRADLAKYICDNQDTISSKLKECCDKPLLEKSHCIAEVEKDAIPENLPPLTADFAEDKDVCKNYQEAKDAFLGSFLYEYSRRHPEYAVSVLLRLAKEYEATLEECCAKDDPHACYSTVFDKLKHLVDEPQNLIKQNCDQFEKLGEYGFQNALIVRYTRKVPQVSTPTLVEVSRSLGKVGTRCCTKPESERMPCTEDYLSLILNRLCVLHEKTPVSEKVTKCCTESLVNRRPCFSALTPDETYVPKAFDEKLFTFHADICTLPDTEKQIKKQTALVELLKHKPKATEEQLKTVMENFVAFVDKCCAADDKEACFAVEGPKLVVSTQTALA
UniProt P14210, residues 32-728: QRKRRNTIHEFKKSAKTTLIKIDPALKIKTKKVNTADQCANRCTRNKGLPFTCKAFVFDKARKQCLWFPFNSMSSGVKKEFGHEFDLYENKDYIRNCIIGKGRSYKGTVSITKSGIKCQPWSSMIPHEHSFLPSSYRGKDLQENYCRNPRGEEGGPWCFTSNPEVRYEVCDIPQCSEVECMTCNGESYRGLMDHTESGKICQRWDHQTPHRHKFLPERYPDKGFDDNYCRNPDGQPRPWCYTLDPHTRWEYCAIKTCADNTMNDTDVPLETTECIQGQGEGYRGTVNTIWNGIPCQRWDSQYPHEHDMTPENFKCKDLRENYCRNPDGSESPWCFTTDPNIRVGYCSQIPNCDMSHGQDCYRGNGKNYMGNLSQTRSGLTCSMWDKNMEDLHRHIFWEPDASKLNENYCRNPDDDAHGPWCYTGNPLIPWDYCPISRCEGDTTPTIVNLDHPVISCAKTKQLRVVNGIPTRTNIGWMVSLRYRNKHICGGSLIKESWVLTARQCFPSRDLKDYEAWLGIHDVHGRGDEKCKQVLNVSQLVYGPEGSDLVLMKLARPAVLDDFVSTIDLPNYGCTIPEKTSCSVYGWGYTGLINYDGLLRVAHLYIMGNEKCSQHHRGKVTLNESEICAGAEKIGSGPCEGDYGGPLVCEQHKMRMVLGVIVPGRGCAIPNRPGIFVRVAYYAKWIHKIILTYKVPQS
UniProt P08581, residues 25-1390: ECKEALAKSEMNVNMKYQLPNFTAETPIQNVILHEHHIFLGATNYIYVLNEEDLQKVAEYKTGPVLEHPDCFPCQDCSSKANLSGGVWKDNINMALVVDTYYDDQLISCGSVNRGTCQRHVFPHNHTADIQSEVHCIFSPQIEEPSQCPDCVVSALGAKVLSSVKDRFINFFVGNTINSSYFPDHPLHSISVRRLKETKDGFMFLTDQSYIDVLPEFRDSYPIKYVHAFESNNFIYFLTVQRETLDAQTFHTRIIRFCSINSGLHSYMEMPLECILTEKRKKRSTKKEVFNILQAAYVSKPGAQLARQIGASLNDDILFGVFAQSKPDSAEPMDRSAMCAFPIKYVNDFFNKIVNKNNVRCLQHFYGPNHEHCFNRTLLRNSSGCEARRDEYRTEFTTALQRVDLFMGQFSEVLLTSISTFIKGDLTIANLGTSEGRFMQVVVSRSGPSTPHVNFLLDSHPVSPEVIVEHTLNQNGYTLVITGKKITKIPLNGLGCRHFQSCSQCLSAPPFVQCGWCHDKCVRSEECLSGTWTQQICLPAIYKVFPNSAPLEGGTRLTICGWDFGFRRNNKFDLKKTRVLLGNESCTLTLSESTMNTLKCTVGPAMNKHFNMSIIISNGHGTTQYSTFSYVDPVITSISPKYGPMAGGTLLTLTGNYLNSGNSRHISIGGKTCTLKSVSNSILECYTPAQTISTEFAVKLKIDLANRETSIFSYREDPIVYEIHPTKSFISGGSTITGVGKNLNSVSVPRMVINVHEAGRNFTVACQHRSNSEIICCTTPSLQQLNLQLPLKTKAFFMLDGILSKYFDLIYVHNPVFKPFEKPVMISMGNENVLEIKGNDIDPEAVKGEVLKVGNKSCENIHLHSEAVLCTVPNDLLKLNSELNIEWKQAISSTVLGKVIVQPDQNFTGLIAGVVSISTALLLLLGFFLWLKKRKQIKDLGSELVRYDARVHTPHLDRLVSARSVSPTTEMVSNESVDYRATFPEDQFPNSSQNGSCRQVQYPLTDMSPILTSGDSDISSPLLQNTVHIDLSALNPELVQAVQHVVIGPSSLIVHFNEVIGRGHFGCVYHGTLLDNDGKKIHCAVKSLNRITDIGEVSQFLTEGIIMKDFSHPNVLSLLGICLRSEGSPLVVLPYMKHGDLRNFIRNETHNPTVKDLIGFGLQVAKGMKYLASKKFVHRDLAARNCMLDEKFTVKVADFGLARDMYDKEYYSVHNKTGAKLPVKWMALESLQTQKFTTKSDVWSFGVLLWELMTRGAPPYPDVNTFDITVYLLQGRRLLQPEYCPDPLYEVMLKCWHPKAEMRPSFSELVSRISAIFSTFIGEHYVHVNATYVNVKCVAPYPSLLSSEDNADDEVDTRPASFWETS

Assays:
[1] = biological target: BSA (bovine (from the name BSA)) (UniProt P02769); assay: pull-down; HGF (or BSA as control) immobilized on agarose beads, incubated with total cell lysates of PC3 or C4-2 cells; precipitate read by silver staining and immunoblotting; only the target purified
Hepatocyte Growth Factor = Hepatocyte Growth Factor (UniProt P14210); assay: as above

- binding [1]: no binding
- binding (Hepatocyte Growth Factor): binds
Substance: Met (from UniProt P08581 25-1390) (receptor)
